The values that follow come from paper doi:10.1101/236547.

Protein sequences, listed by entry. Tags and fused reporters are not part of them. Residues count along the entry.
UniProt P19490, residues 19-907: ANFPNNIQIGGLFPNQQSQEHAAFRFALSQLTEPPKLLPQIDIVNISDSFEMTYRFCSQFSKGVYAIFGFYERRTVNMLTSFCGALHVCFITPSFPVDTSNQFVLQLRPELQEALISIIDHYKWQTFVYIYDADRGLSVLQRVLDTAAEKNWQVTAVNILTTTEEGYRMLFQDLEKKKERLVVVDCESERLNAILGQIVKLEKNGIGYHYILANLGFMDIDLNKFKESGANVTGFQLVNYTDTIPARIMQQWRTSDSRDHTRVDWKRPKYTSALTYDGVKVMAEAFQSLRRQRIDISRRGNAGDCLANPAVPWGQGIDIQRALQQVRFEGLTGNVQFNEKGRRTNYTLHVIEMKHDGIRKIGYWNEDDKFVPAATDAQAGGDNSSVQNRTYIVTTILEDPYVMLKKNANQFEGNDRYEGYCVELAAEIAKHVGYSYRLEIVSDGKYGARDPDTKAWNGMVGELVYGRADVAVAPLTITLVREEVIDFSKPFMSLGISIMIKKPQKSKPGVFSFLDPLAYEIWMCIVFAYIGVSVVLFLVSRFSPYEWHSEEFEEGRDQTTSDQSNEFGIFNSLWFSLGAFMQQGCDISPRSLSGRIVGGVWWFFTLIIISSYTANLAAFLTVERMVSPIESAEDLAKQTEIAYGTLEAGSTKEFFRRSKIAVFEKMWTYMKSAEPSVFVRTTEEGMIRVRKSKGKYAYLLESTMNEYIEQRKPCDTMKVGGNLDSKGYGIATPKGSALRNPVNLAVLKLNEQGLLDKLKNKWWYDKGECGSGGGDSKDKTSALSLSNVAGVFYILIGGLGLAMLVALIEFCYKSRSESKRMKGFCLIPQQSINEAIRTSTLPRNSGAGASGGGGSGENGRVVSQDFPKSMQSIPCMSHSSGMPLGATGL
UniProt P23818, residues 19-907: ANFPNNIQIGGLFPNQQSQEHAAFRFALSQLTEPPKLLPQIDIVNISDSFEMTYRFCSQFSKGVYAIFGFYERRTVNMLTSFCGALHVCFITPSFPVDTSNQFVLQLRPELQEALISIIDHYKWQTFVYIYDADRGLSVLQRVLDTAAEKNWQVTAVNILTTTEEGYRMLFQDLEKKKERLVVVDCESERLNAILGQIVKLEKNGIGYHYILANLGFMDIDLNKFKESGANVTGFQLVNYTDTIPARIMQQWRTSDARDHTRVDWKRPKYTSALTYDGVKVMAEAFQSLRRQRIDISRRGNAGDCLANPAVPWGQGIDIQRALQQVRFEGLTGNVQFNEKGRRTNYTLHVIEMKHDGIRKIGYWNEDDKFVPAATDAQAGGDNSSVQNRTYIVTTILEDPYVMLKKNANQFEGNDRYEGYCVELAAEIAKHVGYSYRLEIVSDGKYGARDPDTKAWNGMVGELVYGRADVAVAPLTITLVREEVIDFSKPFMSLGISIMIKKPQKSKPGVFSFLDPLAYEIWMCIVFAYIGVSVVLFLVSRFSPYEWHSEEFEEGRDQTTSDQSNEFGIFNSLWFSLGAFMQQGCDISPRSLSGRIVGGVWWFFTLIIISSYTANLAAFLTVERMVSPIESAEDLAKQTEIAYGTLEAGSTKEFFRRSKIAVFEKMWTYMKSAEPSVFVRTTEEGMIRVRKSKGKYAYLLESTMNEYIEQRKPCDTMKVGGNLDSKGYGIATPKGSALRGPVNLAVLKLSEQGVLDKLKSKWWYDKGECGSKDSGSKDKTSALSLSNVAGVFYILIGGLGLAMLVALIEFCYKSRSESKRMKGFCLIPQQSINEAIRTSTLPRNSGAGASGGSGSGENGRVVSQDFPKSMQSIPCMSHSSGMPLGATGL
UniProt P19491, residues 22-883: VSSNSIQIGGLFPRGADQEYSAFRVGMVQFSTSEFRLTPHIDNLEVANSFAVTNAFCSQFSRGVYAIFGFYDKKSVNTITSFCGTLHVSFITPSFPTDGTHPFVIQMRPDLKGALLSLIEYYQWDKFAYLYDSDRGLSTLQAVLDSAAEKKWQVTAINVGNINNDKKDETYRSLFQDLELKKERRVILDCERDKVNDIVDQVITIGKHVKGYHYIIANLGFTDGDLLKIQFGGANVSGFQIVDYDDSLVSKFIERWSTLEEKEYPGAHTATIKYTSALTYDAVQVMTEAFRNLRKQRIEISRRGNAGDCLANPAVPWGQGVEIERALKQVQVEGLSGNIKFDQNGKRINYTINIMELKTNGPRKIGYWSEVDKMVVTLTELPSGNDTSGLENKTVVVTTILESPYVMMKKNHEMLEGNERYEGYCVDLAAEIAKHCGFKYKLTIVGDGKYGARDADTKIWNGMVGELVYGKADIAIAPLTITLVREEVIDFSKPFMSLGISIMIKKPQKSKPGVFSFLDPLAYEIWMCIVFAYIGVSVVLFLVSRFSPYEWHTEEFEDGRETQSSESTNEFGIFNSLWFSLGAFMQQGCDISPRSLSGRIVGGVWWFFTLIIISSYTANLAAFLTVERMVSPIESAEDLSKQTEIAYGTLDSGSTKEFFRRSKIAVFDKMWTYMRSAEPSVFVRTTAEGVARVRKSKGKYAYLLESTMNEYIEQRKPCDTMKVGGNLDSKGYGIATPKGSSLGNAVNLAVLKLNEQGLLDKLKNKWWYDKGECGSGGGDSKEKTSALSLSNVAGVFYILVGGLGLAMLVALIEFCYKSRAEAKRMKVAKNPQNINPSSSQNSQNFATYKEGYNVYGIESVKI

Common to all, as to assay: co-IP
In assay [1] the target is T1, GFP-tagged LARGE (LARGE-GFP) (UniProt O95461).
T1 sequence: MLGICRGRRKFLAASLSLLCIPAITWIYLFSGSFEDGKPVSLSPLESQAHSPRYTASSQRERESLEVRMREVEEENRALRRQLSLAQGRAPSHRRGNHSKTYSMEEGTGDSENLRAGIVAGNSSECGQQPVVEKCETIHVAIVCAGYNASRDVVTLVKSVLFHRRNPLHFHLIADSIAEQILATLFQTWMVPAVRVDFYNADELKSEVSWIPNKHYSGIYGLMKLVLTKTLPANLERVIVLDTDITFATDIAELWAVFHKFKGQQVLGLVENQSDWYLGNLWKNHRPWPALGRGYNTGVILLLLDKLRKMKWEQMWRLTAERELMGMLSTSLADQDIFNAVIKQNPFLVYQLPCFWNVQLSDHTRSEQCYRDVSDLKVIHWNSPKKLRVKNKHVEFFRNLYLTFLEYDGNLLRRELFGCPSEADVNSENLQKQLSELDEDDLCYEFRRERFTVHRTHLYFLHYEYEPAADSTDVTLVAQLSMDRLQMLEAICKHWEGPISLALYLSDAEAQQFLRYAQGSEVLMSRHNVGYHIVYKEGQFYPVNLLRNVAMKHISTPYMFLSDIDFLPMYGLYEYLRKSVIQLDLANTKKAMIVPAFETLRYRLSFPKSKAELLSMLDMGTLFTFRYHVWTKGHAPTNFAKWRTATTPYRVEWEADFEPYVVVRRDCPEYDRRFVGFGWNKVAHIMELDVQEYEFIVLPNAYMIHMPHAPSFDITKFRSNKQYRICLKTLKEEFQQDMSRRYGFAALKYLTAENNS

Assay [2] deals with myc-tagged GluA1 (myc-GluA1) (UniProt P19490).
For assay [3], the target named is GluA1 (endogenous, cultured hippocampal neurons) (mouse or rat (endogenous in cultured hippocampal neurons)) (UniProt P23818).

Results are given in words; binding and its absence hold for the method and conditions named. Binding seen in cells or lysates may run through a third protein. Some binding calls cover weakened binding; strength is not graded here. For some of these results: Tags and fused reporters may be left off the sequences shown.

“myc-GluA2 (from UniProt P19491 22-883) (receptor)”: the binding entry in assay [1] is on record as “binds”.
As for “myc-tagged GluA1 (myc-GluA1) (from UniProt P19490 19-907) (receptor)”, the binding result in assay [1] is on record as “binds”.

B1: GFP-tagged LARGE (LARGE-GFP) (protein, UniProt O95461 1-756)
chain: T1 sequence
As to B1, the binding entry in assay [2] was “binds”.

B2: LARGE (endogenous, cultured hippocampal neurons) (protein, UniProt Q9Z1M7 1-756)
chain: MLGICRGRRKFLAASLTLLCIPAITWIYLFAGSFEDGKPVSLSPLESQAHSPRYTASSQRERESLEVRVREVEEENRALRRQLSLAQGQSPAHHRGNHSKTYSMEEGTGDSENLRAGIVAGNSSECGQQPAVEKCETIHVAIVCAGYNASRDVVTLVKSVLFHRRNPLHFHLIADSIAEQILATLFQTWMVPAVRVDFYNADELKSEVSWIPNKHYSGIYGLMKLVLTKTLPANLERVIVLDTDITFATDIAELWAVFHKFKGQQVLGLVENQSDWYLGNLWKNHRPWPALGRGYNTGVILLLLDKLRKMKWEQMWRLTAERELMGMLSTSLADQDIFNAVIKQNPFLVYQLPCFWNVQLSDHTRSEQCYRDVSDLKVIHWNSPKKLRVKNKHVEFFRNLYLTFLEYDGNLLRRELFGCPSETDVNNENLQKQLSELDEDDLCYEFRRERFTVHRTHLYFLHYEFEPSADNTDVTLVAQLSMDRLQMLEAICKHWEGPISLALYLSDAEAQQFLRYAQGSEVLMSRQNVGYHIVYKEGQFYPVNLLRNVAMKHISTPYMFLSDIDFLPMYGLYEYLRKSVIQLDLANTKKAMIVPAFETLRYRLSFPKSKAELLSMLDMGTLFTFRYHVWTKGHAPTNFAKWRTATTPYQVEWEADFEPYVVVRRDCPEYDRRFVGFGWNKVAHIMELDAQEYEFTVLPNAYMIHMPHAPSFDITKFRSNKQYRICLKTLKEEFQQDMSRRYGFAALKYLTAENNS
For the molecule B2, the binding result in assay [3] was “binds”.
